From patent US10240255B2 (priority 2007, dated 2019)

Tested on: endothelial cells and PBMC

Structure (SMILES): C=C(CC)C(=O)c1ccc(OCC(=O)O)c(Cl)c1Cl [ethacrynic acid]
- toxicity to endothelial cells and PBMC: toxicity
